Results are given in words; binding and its absence hold for the method and conditions named. Binding seen in cells or lysates may run through a third protein. Here binding means that the protein was enriched with, or labelled near, the bait; the list need not be complete.

Chains of the proteins cited; added tags and fusions are not shown.
UniProt P03496: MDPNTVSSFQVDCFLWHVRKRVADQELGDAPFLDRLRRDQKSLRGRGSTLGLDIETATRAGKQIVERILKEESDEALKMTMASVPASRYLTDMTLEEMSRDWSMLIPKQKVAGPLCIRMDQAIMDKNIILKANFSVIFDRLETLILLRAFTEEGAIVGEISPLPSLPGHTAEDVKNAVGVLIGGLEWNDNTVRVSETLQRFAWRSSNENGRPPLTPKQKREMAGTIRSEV

The source of these data is PMC6316800.

This assay deals with Influenza A virus non-structural protein 1 (NS1), strain A/Puerto Rico/8/1934(H1N1) (Influenza A virus A/Puerto Rico/8/1934(H1N1)) (UniProt P03496). Description: affinity purification with mass spectrometry.

B1: Heterogeneous nuclear ribonucleoprotein R (protein, UniProt O43390 1-633)
chain: MANQVNGNAVQLKEEEEPMDTSSVTHTEHYKTLIEAGLPQKVAERLDEIFQTGLVAYVDLDERAIDALREFNEEGALSVLQQFKESDLSHVQNKSAFLCGVMKTYRQREKQGSKVQESTKGPDEAKIKALLERTGYTLDVTTGQRKYGGPPPDSVYSGVQPGIGTEVFVGKIPRDLYEDELVPLFEKAGPIWDLRLMMDPLSGQNRGYAFITFCGKEAAQEAVKLCDSYEIRPGKHLGVCISVANNRLFVGSIPKNKTKENILEEFSKVTEGLVDVILYHQPDDKKKNRGFCFLEYEDHKSAAQARRRLMSGKVKVWGNVVTVEWADPVEEPDPEVMAKVKVLFVRNLATTVTEEILEKSFSEFGKLERVKKLKDYAFVHFEDRGAAVKAMDEMNGKEIEGEEIEIVLAKPPDKKRKERQAARQASRSTAYEDYYYHPPPRMPPPIRGRGRGGGRGGYGYPPDYYGYEDYYDDYYGYDYHDYRGGYEDPYYGYDDGYAVRGRGGGRGGRGAPPPPRGRGAPPPRGRAGYSQRGAPLGPPRGSRGGRGGPAQQQRGRGSRGSRGNRGGNVGGKRKADGYNQPDSKRRQTNNQQNWGSQPIAQQPLQQGGDYSGNYGYNNDNQEFYQDTYGQQWK
B1: the binding result is “binds”.

B2: Serine beta-lactamase-like protein LACTB, mitochondrial (protein, UniProt P83111 116-547)
chain: HRIKDEVGAPGIVVGVSVDGKEVWSEGLGYADVENRVPCKPETVMRIASISKSLTMVALAKLWEAGKLDLDIPVQHYVPEFPEKEYEGEKVSVTTRLLISHLSGIRHYEKDIKKVKEEKAYKALKMMKENVAFEQEKEGKSNEKNDFTKFKTEQENEAKCRNSKPGKKKNDFEQGELYLREKFENSIESLRLFKNDPLFFKPGSQFLYSTFGYTLLAAIVERASGCKYLDYMQKIFHDLDMLTTVQEENEPVIYNRARFYVYNKKKRLVNTPYVDNSYKWAGGGFLSTVGDLLKFGNAMLYGYQVGLFKNSNENLLPGYLKPETMVMMWTPVPNTEMSWDKEGKYAMAWGVVERKQTYGSCRKQRHYASHTGGAVGASSVLLVLPEELDTETINNKVPPRGIIVSIICNMQSVGLNSTALKIALEFDKDRSD
B2: the binding entry was “binds”.

B3: Ribosome biogenesis protein BRX1 homolog (protein, UniProt Q8TDN6 1-353)
chain: MAATKRKRRGGFAVQAKKPKRNEIDAEPPAKRHATAEEVEEEERDRIPGPVCKGKWKNKERILIFSSRGINFRTRHLMQDLRMLMPHSKADTKMDRKDKLFVINEVCEMKNCNKCIYFEAKKKQDLYMWLSNSPHGPSAKFLVQNIHTLAELKMTGNCLKGSRPLLSFDPAFDELPHYALLKELLIQIFSTPRYHPKSQPFVDHVFTFTILDNRIWFRNFQIIEEDAALVEIGPRFVLNLIKIFQGSFGGPTLYENPHYQSPNMHRRVIRSITAAKYREKQQVKDVQKLRKKEPKTLLPHDPTADVFVTPAEEKPIEIQWVKPEPKVDLKARKKRIYKRQRKMKQRMDSGKTK
For B3, the binding entry is “binds”.

B4: Double-stranded RNA-specific adenosine deaminase (protein, UniProt P55265 1-1226)
chain: MNPRQGYSLSGYYTHPFQGYEHRQLRYQQPGPGSSPSSFLLKQIEFLKGQLPEAPVIGKQTPSLPPSLPGLRPRFPVLLASSTRGRQVDIRGVPRGVHLRSQGLQRGFQHPSPRGRSLPQRGVDCLSSHFQELSIYQDQEQRILKFLEELGEGKATTAHDLSGKLGTPKKEINRVLYSLAKKGKLQKEAGTPPLWKIAVSTQAWNQHSGVVRPDGHSQGAPNSDPSLEPEDRNSTSVSEDLLEPFIAVSAQAWNQHSGVVRPDSHSQGSPNSDPGLEPEDSNSTSALEDPLEFLDMAEIKEKICDYLFNVSDSSALNLAKNIGLTKARDINAVLIDMERQGDVYRQGTTPPIWHLTDKKRERMQIKRNTNSVPETAPAAIPETKRNAEFLTCNIPTSNASNNMVTTEKVENGQEPVIKLENRQEARPEPARLKPPVHYNGPSKAGYVDFENGQWATDDIPDDLNSIRAAPGEFRAIMEMPSFYSHGLPRCSPYKKLTECQLKNPISGLLEYAQFASQTCEFNMIEQSGPPHEPRFKFQVVINGREFPPAEAGSKKVAKQDAAMKAMTILLEEAKAKDSGKSEESSHYSTEKESEKTAESQTPTPSATSFFSGKSPVTTLLECMHKLGNSCEFRLLSKEGPAHEPKFQYCVAVGAQTFPSVSAPSKKVAKQMAAEEAMKALHGEATNSMASDNQPEGMISESLDNLESMMPNKVRKIGELVRYLNTNPVGGLLEYARSHGFAAEFKLVDQSGPPHEPKFVYQAKVGGRWFPAVCAHSKKQGKQEAADAALRVLIGENEKAERMGFTEVTPVTGASLRRTMLLLSRSPEAQPKTLPLTGSTFHDQIAMLSHRCFNTLTNSFQPSLLGRKILAAIIMKKDSEDMGVVVSLGTGNRCVKGDSLSLKGETVNDCHAEIISRRGFIRFLYSELMKYNSQTAKDSIFEPAKGGEKLQIKKTVSFHLYISTAPCGDGALFDKSCSDRAMESTESRHYPVFENPKQGKLRTKVENGEGTIPVESSDIVPTWDGIRLGERLRTMSCSDKILRWNVLGLQGALLTHFLQPIYLKSVTLGYLFSQGHLTRAICCRVTRDGSAFEDGLRHPFIVNHPKVGRVSIYDSKRQSGKTKETSVNWCLADGYDLEILDGTRGTVDGPRNELSRVSKKNIFLLFKKLCSFRYRRDLLRLSYGEAKKAARDYETAKNYFKKGLKDMGYGNWISKPQEEKNFYLCPV
For B4, the binding entry is reported as “binds”.

B5: Heterogeneous nuclear ribonucleoprotein H3 (protein, UniProt P31942 1-346)
chain: MDWVMKHNGPNDASDGTVRLRGLPFGCSKEEIVQFFQGLEIVPNGITLTMDYQGRSTGEAFVQFASKEIAENALGKHKERIGHRYIEIFRSSRSEIKGFYDPPRRLLGQRPGPYDRPIGGRGGYYGAGRGSMYDRMRRGGDGYDGGYGGFDDYGGYNNYGYGNDGFDDRMRDGRGMGGHGYGGAGDASSGFHGGHFVHMRGLPFRATENDIANFFSPLNPIRVHIDIGADGRATGEADVEFVTHEDAVAAMSKDKNNMQHRYIELFLNSTPGGGSGMGGSGMGGYGRDGMDNQGGYGSVGRMGMGNNYSGGYGTPDGLGGYGRGGGGSGGYYGQGGMSGGGWRGMY
As to B5, the binding result was “binds”.

B6: Heterogeneous nuclear ribonucleoprotein A (protein, UniProt Q13151 1-305)
chain: MENSQLCKLFIGGLNVQTSESGLRGHFEAFGTLTDCVVVVNPQTKRSRCFGFVTYSNVEEADAAMAASPHAVDGNTVELKRAVSREDSARPGAHAKVKKLFVGGLKGDVAEGDLIEHFSQFGTVEKAEIIADKQSGKKRGFGFVYFQNHDAADKAAVVKFHPIQGHRVEVKKAVPKEDIYSGGGGGGSRSSRGGRGGRGRGGGRDQNGLSKGGGGGYNSYGGYGGGGGGGYNAYGGGGGGSSYGGSDYGNGFGGFGSYSQHQSSYGPMKSGGGGGGGGSSWGGRSNSGPYRGGYGGGGGYGGSSF
As for B6, the binding result was “binds”.

B7: Matrin-3 (protein, UniProt P43243 1-847)
chain: MSKSFQQSSLSRDSQGHGRDLSAAGIGLLAAATQSLSMPASLGRMNQGTARLASLMNLGMSSSLNQQGAHSALSSASTSSHNLQSIFNIGSRGPLPLSSQHRGDADQASNILASFGLSARDLDELSRYPEDKITPENLPQILLQLKRRRTEEGPTLSYGRDGRSATREPPYRVPRDDWEEKRHFRRDSFDDRGPSLNPVLDYDHGSRSQESGYYDRMDYEDDRLRDGERCRDDSFFGETSHNYHKFDSEYERMGRGPGPLQERSLFEKKRGAPPSSNIEDFHGLLPKGYPHLCSICDLPVHSNKEWSQHINGASHSRRCQLLLEIYPEWNPDNDTGHTMGDPFMLQQSTNPAPGILGPPPPSFHLGGPAVGPRGNLGAGNGNLQGPRHMQKGRVETSRVVHIMDFQRGKNLRYQLLQLVEPFGVISNHLILNKINEAFIEMATTEDAQAAVDYYTTTPALVFGKPVRVHLSQKYKRIKKPEGKPDQKFDQKQELGRVIHLSNLPHSGYSDSAVLKLAEPYGKIKNYILMRMKSQAFIEMETREDAMAMVDHCLKKALWFQGRCVKVDLSEKYKKLVLRIPNRGIDLLKKDKSRKRSYSPDGKESPSDKKSKTDGSQKTESSTEGKEQEEKSGEDGEKDTKDDQTEQEPNMLLESEDELLVDEEEAAALLESGSSVGDETDLANLGDVASDGKKEPSDKAVKKDGSASAAAKKKLKKVDKIEELDQENEAALENGIKNEENTEPGAESSENADDPNKDTSENADGQSDENKDDYTIPDEYRIGPYQPNVPVGIDYVIPKTGFYCKLCSLFYTNEEVAKNTHCSSLPHYQKLKKFLNKLAEERRQKKET
Take B7: the binding result is on record as “binds”.

B8: Heterogeneous nuclear ribonucleoprotein L (protein, UniProt P14866 1-589)
chain: MSRRLLPRAEKRRRRLEQRQQPDEQRRRSGAMVKMAAAGGGGGGGRYYGGGSEGGRAPKRLKTDNAGDQHGGGGGGGGGAGAAGGGGGGENYDDPHKTPASPVVHIRGLIDGVVEADLVEALQEFGPISYVVVMPKKRQALVEFEDVLGACNAVNYAADNQIYIAGHPAFVNYSTSQKISRPGDSDDSRSVNSVLLFTILNPIYSITTDVLYTICNPCGPVQRIVIFRKNGVQAMVEFDSVQSAQRAKASLNGADIYSGCCTLKIEYAKPTRLNVFKNDQDTWDYTNPNLSGQGDPGSNPNKRQRQPPLLGDHPAEYGGPHGGYHSHYHDEGYGPPPPHYEGRRMGPPVGGHRRGPSRYGPQYGHPPPPPPPPEYGPHADSPVLMVYGLDQSKMNCDRVFNVFCLYGNVEKVKFMKSKPGAAMVEMADGYAVDRAITHLNNNFMFGQKLNVCVSKQPAIMPGQSYGLEDGSCSYKDFSESRNNRFSTPEQAAKNRIQHPSNVLHFFNAPLEVTEENFFEICDELGVKRPSSVKVFSGKSERSSSGLLEWESKSDALETLGFLNHYQMKNPNGPYPYTLKLCFSTAQHAS
As for B8, the binding entry is “binds”.

B9: U3 small nucleolar ribonucleoprotein protein IMP4 (protein, UniProt Q96G21 1-291)
chain: MLRREARLRREYLYRKAREEAQRSAQERKERLRRALEENRLIPTELRREALALQGSLEFDDAGGEGVTSHVDDEYRWAGVEDPKVMITTSRDPSSRLKMFAKELKLVFPGAQRMNRGRHEVGALVRACKANGVTDLLVVHEHRGTPVGLIVSHLPFGPTAYFTLCNVVMRHDIPDLGTMSEAKPHLITHGFSSRLGKRVSDILRYLFPVPKDDSHRVITFANQDDYISFRHHVYKKTDHRNVELTEVGPRFELKLYMIRLGTLEQEATADVEWRWHPYTNTARKRVFLSTE
Regarding B9, the binding result is “binds”.

B10: Heterogeneous nuclear ribonucleoprotein M (protein, UniProt P52272 1-730)
chain: MAAGVEAAAEVAATEIKMEEESGAPGVPSGNGAPGPKGEGERPAQNEKRKEKNIKRGGNRFEPYANPTKRYRAFITNIPFDVKWQSLKDLVKEKVGEVTYVELLMDAEGKSRGCAVVEFKMEESMKKAAEVLNKHSLSGRPLKVKEDPDGEHARRAMQKVMATTGGMGMGPGGPGMITIPPSILNNPNIPNEIIHALQAGRLGSTVFVANLDYKVGWKKLKEVFSMAGVVVRADILEDKDGKSRGIGTVTFEQSIEAVQAISMFNGQLLFDRPMHVKMDERALPKGDFFPPERPQQLPHGLGGIGMGLGPGGQPIDANHLNKGIGMGNIGPAGMGMEGIGFGINKMGGMEGPFGGGMENMGRFGSGMNMGRINEILSNALKRGEIIAKQGGGGGGGSVPGIERMGPGIDRLGGAGMERMGAGLGHGMDRVGSEIERMGLVMDRMGSVERMGSGIERMGPLGLDHMASSIERMGQTMERIGSGVERMGAGMGFGLERMAAPIDRVGQTIERMGSGVERMGPAIERMGLSMERMVPAGMGAGLERMGPVMDRMATGLERMGANNLERMGLERMGANSLERMGLERMGANSLERMGPAMGPALGAGIERMGLAMGGGGGASFDRAIEMERGNFGGSFAGSFGGAGGHAPGVARKACQIFVRNLPFDFTWKMLKDKFNECGHVLYADIKMENGKSKGCGVVKFESPEVAERACRMMNGMKLSGREIDVRIDRNA
For B10, the binding entry is “binds”.
